No constants are given. Whether binding was seen depends on the method and setting. In cells and extracts the contact can be indirect. Some entries that bind do so weakly or less than the wild type.
Molecular target: MYC (human (endogenous in WM983B)) (UniProt P01106)
Assay: proximity ligation

By UniProt entry, the sequences of proteins in these tests, tags left out.
UniProt P01106: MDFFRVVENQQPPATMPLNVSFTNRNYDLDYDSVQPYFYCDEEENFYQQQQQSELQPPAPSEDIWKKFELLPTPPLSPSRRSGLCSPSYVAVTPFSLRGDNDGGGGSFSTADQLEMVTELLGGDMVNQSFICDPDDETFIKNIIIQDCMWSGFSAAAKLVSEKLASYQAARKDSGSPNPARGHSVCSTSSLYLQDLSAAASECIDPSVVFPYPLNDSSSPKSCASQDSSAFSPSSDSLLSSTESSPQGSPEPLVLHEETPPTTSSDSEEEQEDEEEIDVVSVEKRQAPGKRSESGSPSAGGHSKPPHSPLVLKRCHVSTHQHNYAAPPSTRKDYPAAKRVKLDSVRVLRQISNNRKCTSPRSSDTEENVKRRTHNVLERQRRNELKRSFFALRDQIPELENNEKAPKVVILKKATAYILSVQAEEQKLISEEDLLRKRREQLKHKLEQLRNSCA
UniProt Q9UKL0: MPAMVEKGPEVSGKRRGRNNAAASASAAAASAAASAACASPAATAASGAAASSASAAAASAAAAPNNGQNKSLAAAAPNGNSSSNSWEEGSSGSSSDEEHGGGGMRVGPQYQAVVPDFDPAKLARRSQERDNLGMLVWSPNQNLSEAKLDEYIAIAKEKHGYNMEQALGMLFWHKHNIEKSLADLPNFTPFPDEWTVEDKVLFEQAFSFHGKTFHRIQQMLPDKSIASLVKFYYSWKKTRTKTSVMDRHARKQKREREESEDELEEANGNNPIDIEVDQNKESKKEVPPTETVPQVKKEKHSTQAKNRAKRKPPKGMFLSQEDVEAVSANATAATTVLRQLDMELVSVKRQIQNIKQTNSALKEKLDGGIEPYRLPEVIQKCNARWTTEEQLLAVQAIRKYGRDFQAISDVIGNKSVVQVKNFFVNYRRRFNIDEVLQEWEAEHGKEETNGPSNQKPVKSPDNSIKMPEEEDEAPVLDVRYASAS

binding: binds
Substance: REST corepressor 1 (RCOR1) (from UniProt Q9UKL0 1-485)

Reference: publication doi:10.1101/2024.12.23.630174
